Data: ChEMBL document CHEMBL4316593 (Eur J Med Chem, 2019)
This continues a long series; more values of the same kind are listed elsewhere.

How the values were obtained:
Format in all cases: cell-based
Conditions in all cases: U-87MG ATCC
[1] = Inhibition of RTK/PI3K/AKT/mTOR signaling in human U87 cells assessed as down regulation of EIF4A3 gene expression at cytotoxic IC50 measured after 48 hrs relative to control
[2] = Inhibition of RTK/PI3K/AKT/mTOR signaling in human U87 cells assessed as down regulation of CPEB2 gene expression at cytotoxic IC50 measured after 48 hrs relative to control
[3] = Inhibition of RTK/PI3K/AKT/mTOR signaling in human U87 cells assessed as down regulation of MSX2 gene expression at cytotoxic IC50 measured after 48 hrs relative to control
[4] = Inhibition of RTK/PI3K/AKT/mTOR signaling in human U87 cells assessed as down regulation of BLM gene expression at cytotoxic IC50 measured after 48 hrs relative to control
[5] = Inhibition of RTK/PI3K/AKT/mTOR signaling in human U87 cells assessed as down regulation of POLR2K gene expression at cytotoxic IC50 measured after 48 hrs relative to control
[6] = Inhibition of RTK/PI3K/AKT/mTOR signaling in human U87 cells assessed as down regulation of HEXB gene expression at cytotoxic IC50 measured after 48 hrs relative to control
[7] = Inhibition of RTK/PI3K/AKT/mTOR signaling in human U87 cells assessed as down regulation of BRAP gene expression at cytotoxic IC50 measured after 48 hrs relative to control
[8] = Inhibition of RTK/PI3K/AKT/mTOR signaling in human U87 cells assessed as down regulation of SLC6A17 gene expression at cytotoxic IC50 measured after 48 hrs relative to control
[9] = Inhibition of RTK/PI3K/AKT/mTOR signaling in human U87 cells assessed as down regulation of PMM1 gene expression at cytotoxic IC50 measured after 48 hrs relative to control
[10] = Inhibition of RTK/PI3K/AKT/mTOR signaling in human U87 cells assessed as down regulation of MED27 gene expression at cytotoxic IC50 measured after 48 hrs relative to control
[11] = Inhibition of RTK/PI3K/AKT/mTOR signaling in human U87 cells assessed as down regulation of PDHX gene expression at cytotoxic IC50 measured after 48 hrs relative to control
[12] = Inhibition of RTK/PI3K/AKT/mTOR signaling in human U87 cells assessed as down regulation of ME1 gene expression at cytotoxic IC50 measured after 48 hrs relative to control
[13] = Inhibition of RTK/PI3K/AKT/mTOR signaling in human U87 cells assessed as down regulation of PANK2 gene expression at cytotoxic IC50 measured after 48 hrs relative to control
[14] = Inhibition of RTK/PI3K/AKT/mTOR signaling in human U87 cells assessed as down regulation of IGF2R gene expression at cytotoxic IC50 measured after 48 hrs relative to control
[15] = Inhibition of RTK/PI3K/AKT/mTOR signaling in human U87 cells assessed as down regulation of WAC gene expression at cytotoxic IC50 measured after 48 hrs relative to control
[16] = Inhibition of RTK/PI3K/AKT/mTOR signaling in human U87 cells assessed as up regulation of SLC2A1 gene expression at cytotoxic IC50 measured after 48 hrs relative to control
[17] = Inhibition of RTK/PI3K/AKT/mTOR signaling in human U87 cells assessed as up regulation of CA11 gene expression at cytotoxic IC50 measured after 48 hrs relative to control
[18] = Inhibition of RTK/PI3K/AKT/mTOR signaling in human U87 cells assessed as up regulation of OLFM2 gene expression at cytotoxic IC50 measured after 48 hrs relative to control
[19] = Inhibition of RTK/PI3K/AKT/mTOR signaling in human U87 cells assessed as up regulation of SLC43A1 gene expression at cytotoxic IC50 measured after 48 hrs relative to control
[20] = Inhibition of RTK/PI3K/AKT/mTOR signaling in human U87 cells assessed as up regulation of SEMA6B gene expression at cytotoxic IC50 measured after 48 hrs relative to control
[21] = Inhibition of RTK/PI3K/AKT/mTOR signaling in human U87 cells assessed as up regulation of zinc finger protein 608 gene expression at cytotoxic IC50 measured after 48 hrs relative to control
[22] = Inhibition of RTK/PI3K/AKT/mTOR signaling in human U87 cells assessed as up regulation of family with sequence similarity 175 member A gene expression at cytotoxic IC50 measured after 48 hrs relative to control
[23] = Inhibition of RTK/PI3K/AKT/mTOR signaling in human U87 cells assessed as up regulation of NADPH oxidase activator 1 gene expression at cytotoxic IC50 measured after 48 hrs relative to control
[24] = Inhibition of RTK/PI3K/AKT/mTOR signaling in human U87 cells assessed as up regulation of family with sequence similarity 3 member C gene expression at cytotoxic IC50 measured after 48 hrs relative to control
[25] = Inhibition of RTK/PI3K/AKT/mTOR signaling in human U87 cells assessed as up regulation of prolyl 3-hydroxylase family member 4 (non-enzymatic) gene expression at cytotoxic IC50 measured after 48 hrs relative to control
[26] = Inhibition of RTK/PI3K/AKT/mTOR signaling in human U87 cells assessed as up regulation of nudE neurodevelopment protein 1 gene expression at cytotoxic IC50 measured after 48 hrs relative to control
[27] = Inhibition of RTK/PI3K/AKT/mTOR signaling in human U87 cells assessed as up regulation of solute carrier family 25 member 23 gene expression at cytotoxic IC50 measured after 48 hrs relative to control
[28] = Inhibition of RTK/PI3K/AKT/mTOR signaling in human U87 cells assessed as up regulation of cystatin A gene expression at cytotoxic IC50 measured after 48 hrs relative to control
[29] = Inhibition of RTK/PI3K/AKT/mTOR signaling in human U87 cells assessed as up regulation of protease, serine 8 gene expression at cytotoxic IC50 measured after 48 hrs relative to control
[30] = Inhibition of RTK/PI3K/AKT/mTOR signaling in human U87 cells assessed as up regulation of FLNC gene expression at cytotoxic IC50 measured after 48 hrs relative to control
[31] = Inhibition of RTK/PI3K/AKT/mTOR signaling in human U87 cells assessed as up regulation of UFM1 gene expression at cytotoxic IC50 measured after 48 hrs relative to control
[32] = Inhibition of RTK/PI3K/AKT/mTOR signaling in human U87 cells assessed as up regulation of LMNA gene expression at cytotoxic IC50 measured after 48 hrs relative to control

CC(=O)C(=NNc1ccccc1C#N)C(C)=O
log2FC [1]: -0.453
log2FC [2]: -4.32
log2FC [3]: -1.75
log2FC [4]: -1.34
log2FC [5]: -1.15
log2FC [6]: -0.975
log2FC [7]: -0.911
log2FC [8]: -0.751
log2FC [9]: -0.732
log2FC [10]: -0.719
log2FC [11]: -0.69
log2FC [12]: -0.667
log2FC [13]: -0.636
log2FC [14]: -0.42
log2FC [15]: -0.377
log2FC [16]: 2.84
log2FC [17]: 2.24
log2FC [18]: 1.75
log2FC [19]: 1.61
log2FC [20]: 1.6
log2FC [21]: 1.5
log2FC [22]: 1.38
log2FC [23]: 1.37
log2FC [24]: 1.08
log2FC [25]: 1.07
log2FC [26]: 0.909
log2FC [27]: 0.865
log2FC [28]: 0.844
log2FC [29]: 0.764
log2FC [30]: 0.609
log2FC [31]: 0.523
log2FC [32]: 0.448
